The text below walks through data of PubChem BioAssay AID1457 (National Center for Advancing Translational Sciences (NCATS), 2008).

The entries are a selection whose mix differs from that of the whole data set. The source made the active and inactive calls. Calls follow the shape of the dose curve; as a rule, active = well fitted inhibition curve with a large enough effect; inconclusive = small, poorly fitted or top-dose-only effect; inactive = no such curve, though single readings can be large or run the other way.

The assay can be described thus: qHTS Assay for Identifying the Cell-Membrane Permeable IMPase Inhibitors: Potentiation with Lithium.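 Also: IP1 builds up when IMPase is blocked and the TR-FRET signal falls; plate controls were basal vehicle for no effect and high inhibitor control for full effect; nearly all actives have a fitted effect of over 50% in size.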 To be noted: CHO-M1 cells, IP1 TR-FRET (IP-One), carbachol + lithium; at 59.4 µM (top of the series). From the text: NIH Chemical Genomics Center [NCGC]
NIH Molecular Libraries Probe Production centers Network [MLPCN]
Assay Submitter (PI): Wei Zheng
Lithium has been widely used for the treatment of bipolar disorder. But lithium has a narrow therapeutic index and it can cause side effects such as thirst, weight gain, tremor, polyuria and memory problems. Although the mechanism for lithium action in treatment of bipolar disorder is still not fully understood, inhibition of inositol monophosphatase (IMPase) and the subsequent depletion of the inositol pool in living cells have been implicated as the primary therapeutic benefit of lithium therapy. […]
To identify new cell-permeable IMPase inhibitors, we developed a cell-based IMPase assay in which the cytosolic IP1 is measured by a time-resolved fluorescence resonance energy transfer (TR-FRET) assay. […]
A Chinese hamster ovary (CHO) cell line stably expressing the M1 receptor (CHO-M1) was obtained from ATCC and maintained in F-12 Kaighn's media (Invitrogen, Carlsbad, CA) supplemented with 10 % FBS, 100 units/ml penicillin, 100 ug/ml streptomycin and 250 ug/ml geneticin at 37C, 5% CO2 in a humidified atmosphere. […] AC50 values were determined from concentration-response data modeled with the standard Hill equation. […]
(7) Detect the assay plate (Ex = 320, Em1 =665 and Em2 620) in a ViewLux plate reader.
A general note: Quantitative high-throughput screening tests each substance at several concentrations.
As to `CC(C)=CCC[C@]1(C)[C@@H](CC=C(C)C)C[C@@]2(CC=C(C)C)C(=O)[C@]1(C(=O)C(C)C)C(=O)C(CC=C(C)C)=C2O`, the activity, negative = IMPase inhibition is inactive: 20.5%.
